This is an account of results in the supplement of paper PMC3741180, “A Novel High Throughput Biochemical Assay to Evaluate the HuR Protein-RNA Complex Formation” (PLoS ONE, 2013).

Sequences of proteins named here, by UniProt entry; tags and fusion partners are left off.
UniProt Q15717, whole entry: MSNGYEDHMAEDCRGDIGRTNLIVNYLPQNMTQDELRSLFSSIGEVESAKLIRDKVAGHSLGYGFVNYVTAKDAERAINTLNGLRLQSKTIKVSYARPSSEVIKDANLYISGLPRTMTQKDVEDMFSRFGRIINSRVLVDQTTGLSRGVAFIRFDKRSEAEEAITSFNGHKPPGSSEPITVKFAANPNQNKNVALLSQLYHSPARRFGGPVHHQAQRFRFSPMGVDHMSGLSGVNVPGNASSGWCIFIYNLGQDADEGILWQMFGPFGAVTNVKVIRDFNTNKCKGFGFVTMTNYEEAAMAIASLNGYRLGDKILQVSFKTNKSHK

SMILES strings stand for the structures. The list shows a part of the results. Single values are uncertain here, since repeats match poorly. Peptide text beside a SMILES is read from it.

This experiment addresses HuR (ELAVL1) - TNFalpha ARE RNA complex (UniProt Q15717). The experiment is described as follows: AlphaScreen HuR-RNA complex signal Z-score relative to positive (Bi-TNF, DMSO) controls (Z-score (SD units of positive control)); higher = more complex signal. To be noted: screen stage: primary screen; compound concentration: 25 nM. A general note: Bead proximity is the source of the signal in Alpha formats.
In the case of `C/C(=C\C(=O)OCCCCCCCCC(=O)O)C[C@@H]1OC[C@H](C[C@@H]2O[C@H]2[C@@H](C)[C@H](C)O)[C@@H](O)[C@H]1O`, the “AlphaScreen HuR-RNA complex signal Z-score” value worked out at 1.39.
The value for `N[C@@H](CSCSC[C@H](N)C(=O)O)C(=O)O` was -2.27; that for `CN/C(=N\CCSCc1nc[nH]c1C)NC#N` was 0.115; that for `CCCCC/C=C/CCC(=O)N[C@H]1[C@H](Oc2c3cc4cc2Oc2ccc(cc2Cl)[C@@H](O[C@@H]2O[C@H](CO)[C@@H](O)[C@H](O)[C@H]2NC(C)=O)[C@@H]2NC(=O)[C@H](NC(=O)[C@@H]4NC(=O)[C@H]4NC(=O)C(Cc5ccc(c(Cl)c5)O3)NC(=O)[C@H](N)c3ccc(O)c(c3)Oc3cc(O)cc4c3)c3ccc(O)c(c3)-c3c(OC4O[C@H](CO)[C@@H](O)[C@H](O)[C@@H]4O)cc(O)cc3[C@@H](C(=O)O)NC2=O)O[C@H](CO)[C@@H](O)[C@@H]1O` (some centres not stated) [TEICOPLANIN [A(2-1) shown]] was -1.
The value for `Cc1ccnc(NS(=O)(=O)c2ccc(N)cc2)n1` was 40.1; that for `NC(=O)OCC(COC(N)=O)c1ccccc1` was 1.09.
For `O=c1c(O)c(-c2ccccc2)oc2cccc(O)c12`, the “AlphaScreen HuR-RNA complex signal Z-score” value was 0.929.
The value for `NCCCC(O)(P(=O)(O)O)P(=O)(O)O` was 2.89; that for `CNC[C@H](O)[C@@H](O)[C@H](O)[C@H](O)CO` was -2.97.
The value for `Nc1ccc(S(=O)(=O)Nc2cnc3ccccc3n2)cc1` was 0.871; that for `CCCCNc1cc(C(=O)O)cc(S(N)(=O)=O)c1Oc1ccccc1` was 1.65; that for `O=c1c(O)c(-c2ccc(O)cc2)oc2ccccc12` was 0.972.
The value for `CC(=O)Oc1ccccc1C(=O)Oc1ccccc1C(=O)O` was 1.71; that for `CC(C)C[C@H](N)C(=O)N[C@@H](C)C(=O)O` (H-Leu-Ala-OH) was 2.34; that for `CCOC(=O)c1c(C)cc(O)c(C=O)c1O` was 1.39.
In the case of `CCN(CC)CCOC(=O)c1ccc(N)cc1`, the “AlphaScreen HuR-RNA complex signal Z-score” value worked out at 3.85.
As for `CC[C@H](C)C(=O)O[C@H]1C[C@@H](C)C=C2C=C[C@H](C)[C@H](CC[C@@H]3C[C@@H](O)CC(=O)O3)[C@H]21`, the “AlphaScreen HuR-RNA complex signal Z-score” value is 1.46.
The value for `COc1cccc(-c2cc(=O)c3cc(OC)ccc3o2)c1` was 0.305.
With `COc1cc(C2Oc3cc([C@H]4Oc5cc(O)cc(O)c5C(=O)[C@@H]4O)ccc3OC2CO)ccc1O` (some centres not stated), the “AlphaScreen HuR-RNA complex signal Z-score” value amounted to 1.82.
The value for `O=c1cc(-c2ccccc2)oc2cc(O)c(O)c(O)c12` was 1.58; that for `CC(C)CCCC(C)N` (configuration not stated) was 3.91; that for `CC(=O)N[C@@H](CS)C(=O)O` was 0.315.
The value for `CC(=O)O[C@H]1C[C@@]2(C)[C@@H](C[C@@H](O)[C@H]3[C@@]4(C)CC[C@@H](O)[C@@H](C)[C@@H]4CC[C@@]32C)/C1=C(\CCC=C(C)C)C(=O)O` was -1.71.
The value for `OC(c1cc(C(F)(F)F)nc2c(C(F)(F)F)cccc12)C1CCCCN1` (configuration not stated) was 0.602.
`CNCCCC12CCC(c3ccccc31)c1ccccc12`: the “AlphaScreen HuR-RNA complex signal Z-score” value worked out at 6.21.
The value for `Cc1coc2c1C(=O)C(=O)c1c-2ccc2c1CCCC2(C)C` was -0.752; that for `CCCCCC(=O)O[C@]1(C(C)=O)CC[C@H]2[C@@H]3CCC4=CC(=O)CC[C@]4(C)[C@H]3CC[C@@]21C` was -0.995; that for `O=C(O[C@@H]1Cc2c(O)cc(O)cc2O[C@@H]1c1ccc(O)c(O)c1)c1cc(O)c(O)c(O)c1` was 1.75.
The value for `COc1ccc(C(=O)O)c(O)c1OC` was 0.96; that for `CC(=O)O[C@H]1C[C@@H]2CC[C@@H]3[C@H](CC[C@@]4(C)[C@H]3C[C@H]([N+]3(C)CCCCC3)[C@@H]4OC(C)=O)[C@@]2(C)C[C@@H]1N1CCCCC1` was 1.1; that for `C[C@]12C=CC(=O)C=C1CC[C@H]1[C@@H]3C[C@@H](O)[C@](O)(C(=O)CO)[C@@]3(C)C[C@H](O)[C@@]12F` was 2.96.
The value for `CC1(C)O[C@@H]2C[C@H]3[C@@H]4CCC5=CC(=O)CC[C@]5(C)[C@@]4(F)[C@@H](O)C[C@]3(C)[C@]2(C(=O)CCl)O1` was 1.57.
`C[C@@H]1O[C@@H](OC[C@H]2O[C@@H](Oc3c(-c4ccc(OCCO)c(OCCO)c4)oc4cc(OCCO)cc(O)c4c3=O)[C@H](O)[C@@H](O)[C@@H]2O)[C@H](O)[C@H](O)[C@H]1O`: the “AlphaScreen HuR-RNA complex signal Z-score” value is 1.37.
The value for `CN1C(=O)OC(C)(C)C1=O` was 2.41.
The value for `CC(=O)CCCCn1c(=O)c2c(ncn2C)n(C)c1=O` was 0.627; that for `C=C1[C@@H]([C@@]2(C)C=CC(=O)C(C)(C)[C@@H]2CC(=O)OC)CC[C@@]2(C)[C@H](c3ccoc3)OC(=O)[C@H]3O[C@]132` was 1.66.
For the compound `C[C@@H]1CC[C@@]2(OC1)O[C@H]1C[C@H]3[C@@H]4CC[C@H]5C[C@@H](O)CC[C@]5(C)[C@H]4CC(=O)[C@]3(C)[C@H]1[C@@H]2C`, the “AlphaScreen HuR-RNA complex signal Z-score” value turned out to be 1.16.
The value for `O=c1c(-c2ccc(O)cc2)coc2cc(O)ccc12` was 2.59.
The value for `COc1c(C)c2c(c(O)c1C/C=C(\C)CCC(=O)O)C(=O)OC2` was -0.42; that for `O=C(O)c1ccc(S(=O)(=O)N(Cl)Cl)cc1` was -0.734.
The value for `O=C(Oc1ccccc1C(=O)O)c1ccccc1O` was -6.08.
Consider `CCN1CCCC(OC(=O)C(c2ccccc2)c2ccccc2)C1` (configuration not stated), for which the “AlphaScreen HuR-RNA complex signal Z-score” value was found to be 0.0725.
On to `Nc1ccc(C(=O)O)cc1`, for which the “AlphaScreen HuR-RNA complex signal Z-score” value worked out at 0.392.
As for `CC(C)c1ccc2c(c1)CC[C@H]1[C@](C)(CN)CCC[C@]21C`, the “AlphaScreen HuR-RNA complex signal Z-score” value amounted to 0.674.
The value for `CN(C)CCCSC(=N)N` was 1.97.
As for `NCCNCCNCCN`, the “AlphaScreen HuR-RNA complex signal Z-score” value amounted to 1.65.
With `O=C(CCc1ccc(O)cc1)c1c(O)cc(O)cc1O[C@@H]1OC(CO)[C@@H](O)[C@@H](O)C1O` (some centres not stated), the “AlphaScreen HuR-RNA complex signal Z-score” value was 0.975.
Take `CCCC1O[C@@H]2C[C@H]3[C@@H]4CCC5=CC(=O)C=C[C@]5(C)[C@H]4[C@@H](O)C[C@]3(C)[C@]2(C(=O)CO)O1` (some centres not stated): the “AlphaScreen HuR-RNA complex signal Z-score” value was -0.582.
The value for `CC(C)c1c(O)ccc2c1CC[C@H]1C(C)(C)CCC[C@]21C` was -0.671.
As for `CC(C(=O)O)c1cccc(C(=O)c2ccccc2)c1` (configuration not stated), the “AlphaScreen HuR-RNA complex signal Z-score” value was 1.62.
The value for `CCOC(=O)c1ncn2c1CN(C)C(=O)c1cc(F)ccc1-2` was 1.96.
The value for `O=NN(CCCl)C(=O)NCCCl` was 2.77; that for `CC1(C)CC23C(=O)CCC(O)C2(C)CCC13` (configuration not stated) was 1.23; that for `CCC(C(N)=O)c1ccccc1` (configuration not stated) was 2.05.
For the compound `CCOc1cc(CC(=O)N[C@@H](CC(C)C)c2ccccc2N2CCCCC2)ccc1C(=O)O`, the “AlphaScreen HuR-RNA complex signal Z-score” value worked out at 2.38.
The value for `COc1cc2c(cc1OC)C1(O)C(=O)c3ccc(O)c(C(=O)O)c3OC1CO2` (configuration not stated) was -4.87.
The value for `C#C[C@]1(O)CC[C@H]2[C@@H]3CCc4cc(O)ccc4[C@H]3CC[C@@]21C` was -1.3.
On to `CC(C)=CC1C(CO)C1(C)C` (configuration not stated), for which the “AlphaScreen HuR-RNA complex signal Z-score” value was 1.69.
On to `Cc1occc(=O)c1O`, for which the “AlphaScreen HuR-RNA complex signal Z-score” value was found to be 1.31.
The value for `NCCSSCCN` was 2.67; that for `CC1(C)C(=O)[C@H]2C[C@]3(O)C4=CC(=O)O[C@@H](c5ccoc5)[C@@]4(C)CCC3[C@](C)(C2=O)[C@H]1CC(=O)O` (some centres not stated) was 0.483.
The value for `CCCCCN(CCCCC)C(=O)C(CCC(=O)O)NC(=O)c1ccc(Cl)c(Cl)c1` (configuration not stated) was 1.89; that for `O=c1cc(-c2ccccc2O)oc2cc(O)ccc12` was -0.106.
`CC(C)NCC(O)c1ccc(O)c(O)c1` (configuration not stated): the “AlphaScreen HuR-RNA complex signal Z-score” value was -3.23.
Take `C#CCCCCCCCCCCCC(O)CC(O)COC(C)=O` (configuration not stated): the “AlphaScreen HuR-RNA complex signal Z-score” value stood at 2.61.
The value for `CC(=O)OCC(=O)[C@@]1(O)[C@H](C)C[C@H]2[C@@H]3CCC4=CC(=O)C=C[C@]4(C)[C@@]3(F)[C@@H](O)C[C@@]21C` was 1.67; that for `COc1ncnc(NS(=O)(=O)c2ccc(N)cc2)c1OC` was 1.83.
The value for `CC1(C)C(=O)C=CC2(C)C1C=CC1(C)C2CCC2(C)C(c3ccoc3)OC(=O)C3OC312` (configuration not stated) was 1.69; that for `COc1c(N2C[C@@H]3CCCN[C@@H]3C2)c(F)cc2c(=O)c(C(=O)O)cn(C3CC3)c12` was 1.77; that for `COc1ccc(C(=O)c2ccccc2)c(O)c1` was 6.29.
The value for `COc1ccc(C=CC(=O)O)cc1OC` was 1.45; that for `CC1(C)O[C@@H]2C[C@H]3[C@@H]4CCC5=CC(=O)C=C[C@]5(C)[C@H]4[C@@H](O)C[C@]3(C)[C@]2(C(=O)CO)O1` was 1.36.
Regarding `O=C(O)Cc1cc(I)c(Oc2cc(I)c(O)c(I)c2)c(I)c1`, the “AlphaScreen HuR-RNA complex signal Z-score” value amounted to 2.7.
The value for `CCN(CC)CCOc1ccc2c(c1)C(=O)c1cc(OCCN(CC)CC)ccc1-2` was 2.04.
Turning to `CC[C@H]1OC(=O)C[C@@H](O)[C@H](C)[C@@H](O[C@@H]2O[C@H](C)[C@@H](O[C@H]3C[C@@](C)(O)[C@@H](O)[C@H](C)O3)[C@H](N(C)C)[C@H]2O)[C@@H](CC=O)C[C@@H](C)C(=O)/C=C/C(C)=C/[C@@H]1CO[C@@H]1O[C@H](C)[C@@H](O)[C@@H](OC)[C@H]1OC`, the “AlphaScreen HuR-RNA complex signal Z-score” value was -0.752.
`COc1ccc2c(=O)c(-c3ccc(O)cc3)coc2c1`: the “AlphaScreen HuR-RNA complex signal Z-score” value worked out at 1.4.
The value for `CNS(=O)(=O)c1ccc(NC(=O)c2ccccc2C(=O)O)cc1` was 2.21.
The value for `COC(=O)CC1C(C)(C)C(OC(C)=O)[C@@H]2[C@@H](OC(C)=O)[C@]34O[C@@]2(O)[C@]1(C)C3CC[C@]1(C)C4=CC(=O)O[C@H]1c1ccoc1` (some centres not stated) was 1.6; that for `Nc1c2c(nc3ccccc13)CCCC2` was 5.03; that for `O=c1cc(-c2ccccc2)oc2cc(O)cc(O)c12` was -0.0595.
The value for `CCN(CC)C(=S)SSC(=S)N(CC)CC` was -1.93; that for `C=C[C@@]1(C)CC(=O)[C@]2(O)[C@@]3(C)[C@@H](O)CCC(C)(C)[C@@H]3[C@H](O)[C@H](OC(C)=O)[C@@]2(C)O1` was 0.0936.
In the case of `CN(Cc1cnc2nc(N)nc(N)c2n1)c1ccc(C(=O)NC(CCC(=O)O)C(=O)O)cc1` (racemic), the “AlphaScreen HuR-RNA complex signal Z-score” value came out at 4.19.
The value for `C[C@H](N)[C@H](O)c1cccc(O)c1` was -2.57; that for `CCN(CC)CCOC(=O)C(Cc1cccc2ccccc12)CC1CCCO1` (configuration not stated) was 0.376; that for `CC1(C)S[C@@H]2[C@H](NC(=O)C(C(=O)O)c3ccccc3)C(=O)N2[C@H]1C(=O)O` (some centres not stated) was 0.314.
The value for `CC(C)=CCC/C(C)=C/CC/C(C)=C/CO` was 0.435.
The value for `Cc1c(C(=O)O)c(O)cc2c1C(=O)c1c(O)c([C@@H]3O[C@H](CO)[C@@H](O)[C@H](O)[C@H]3O)c(O)c(O)c1C2=O` was 0.717; that for `Cc1ccccc1OCC(O)CO` (configuration not stated) was 1.01.
On to `c1ccc2c(c1)CN1CCCC1=N2`, for which the “AlphaScreen HuR-RNA complex signal Z-score” value worked out at 0.835.
The value for `O=C1CN(/N=C/c2ccc([N+](=O)[O-])o2)C(=O)N1` was 7.99; that for `CC1(C)S[C@@H]2[C@H](NC(=O)[C@H](C(=O)O)c3ccsc3)C(=O)N2[C@H]1C(=O)O` was 2.14.
